Literature values as cited in patent US20030100540A1, “Identification of NSAID-regulated genes” (Vanderbilt University, priority 2001, published 2003).
At least one structure is not confirmed: it was looked up by name or label, or the drawing left a doubt.

System: colorectal adenomas
Conditions: patients with familial adenomatous polyposis (FAP); cited from earlier work

In the case of `Cc1ccc(-c2cc(C(F)(F)F)nn2-c2ccc(S(N)(=O)=O)cc2)cc1` [celecoxib, 4-[5-(4-methyphenyl)-3-(trifluoromethyl)-1H-pyrazol-1-yl] benzenesulfonamide], the “Effect on colorectal adenomas” value is given as “reduce both the size and number of colorectal adenomas”.
